Results are given in words; binding and its absence hold for the method and conditions named. Some results given as binding are weak or reduced against the parent protein; the word gives no strength.
Legend:
[1] = molecular target: human soluble FLT3L (recombinant huFLT3L) (human) (UniProt P49771); test: Octet epitope binning: biotin-FLT3L on the avidin probe, CAT5D9 bound in Phase II
[2] = molecular target: human soluble FLT3L (recombinant huFLT3L) (human) (UniProt P49771); test: Octet epitope binning: biotin-FLT3L on the avidin probe, CAT8 bound in Phase II, test molecule added in Phase III
[3] = molecular target: human soluble FLT3L (recombinant huFLT3L) (human) (UniProt P49771); test: Octet on biotin-FLT3L, dissociation in buffer
[4] = molecular target: human soluble FLT3L (recombinant huFLT3L) (human) (UniProt P49771); test: competition HTRF (15 min): % of inhibition of the interaction of biotin-labeled FLT3L with FLT3-mFc; the IgG is titrated
[5] = molecular target: human soluble FLT3L (recombinant huFLT3L) (human) (UniProt P49771); test: Octet epitope binning: biotin-FLT3L on the avidin probe, CAT5D9 bound in Phase II, test molecule added in Phase III
[6] = molecular target: human soluble FLT3L (recombinant huFLT3L) (human) (UniProt P49771); test: endogenous soluble FLT3L in human serum; assay not described

Protein sequences, listed by entry. Tags and fused reporters are not part of them. Residues count along the entry.
UniProt P49771, residues 27-184: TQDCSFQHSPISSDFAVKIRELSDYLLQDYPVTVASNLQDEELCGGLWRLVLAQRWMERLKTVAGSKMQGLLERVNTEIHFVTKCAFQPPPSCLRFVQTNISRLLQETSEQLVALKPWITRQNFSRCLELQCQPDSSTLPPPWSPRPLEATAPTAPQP

| Binder | binding [1] | binding [2] | binding [3] | binding [4] | binding [5] | binding [6] |
| --- | --- | --- | --- | --- | --- | --- |
| CAT26 antibody (IgG1 TM format) (antibody, V domains shown) VH: EVQLLESGGGLVQPGGSLRLSCAASGFTFSSYAVSWVRQAPGKGLEWVSAISGSGGSTYYADSVKGRFTISRDNSKNTLYLQMNSLRAEDTAVYYCVKDAYGSSWYFYYFDYWGQGTMVTVSS VL: QSVLTQPPSASGTPGQRVTISCSGSSSNIGINPVNWYQQLPGTAPKVLIYSDKYRPSGVADRFSGSKSGTSASLAISGLQSEDEADYFCAAWDDSLNGRVFGTGTKLTVL |  |  | binds | binds | binds |  |
| SC4017 antibody (antibody, V domains shown) VH: QVQLVQSGAEVKKPGSSVKVSCKASGGTFSSYALSWVRQAPGQGLEWMGTRPPTSRTASYAQKFQGRVTITVDESTSTGYMELSSLRSEDTAVYYCASNDFVYGSYRFWGQGTTVTVSS VL: NFMLTQPHSVSESPGKTVTISCTRTSGWIAGYFVQWYQQRPGSSPTTVIYEDYQRPSGVPDRFSGSIDSSSNSASLTISGLKTEDEADYYCQSYDDYRRAAFGGGTKLTVLG |  |  |  |  |  | binds |

Other lines, results leading:

| binding [1] | binding [2] | binding [3] | binding [4] | binding [5] | binding [6] | Binder |
| --- | --- | --- | --- | --- | --- | --- |
| binds | binds | binds | binds |  |  | CAT5D9 antibody (IgG1 TM format) (antibody, V domains shown) VH: QVQLVQSGAEVKKPGSSVKVSCKISGGTFSSYALSWVRQAPGQGLEWMGGIIPVFRTASYAQKFQGRVTITVDESASTGYIELSSLKSEDTATYYCASNNYVWGSYRFWGQGTTVTVSS VL: NFMLTQPHSVSESPGKTVTISCTRTSGNIAGYFVQWYQQRPGSSPTTVIYEDYQRPSGVPDRFSGSIDRSSNSASLTISGLKPDDEADYYCQSYDDTSQGVFGAGTKVTVLG |
|  |  |  |  |  | binds | AM40 (MEDI1116) antibody (antibody, V domains shown) VH: QVQLVQSGAEVKKPGSSVKVSCKASGGTFSSYALSWVRQAPGQGLEWMGTRPPTSRTASYAQKFQGRVTITVDESTSTGYMELSSLRSEDTAVYYCASNDFVYGSYRFWGQGTTVTVSS VL: NFMLTQPHSVSESPGKTVTISCTRTSGNIAGYFVQWYQQRPGSSPTTVIYEDYQRPSGVPDRFSGSIDSSSNSASLTISGLKTEDEADYYCQSYDDYRRAAFGGGTKLTVLG |
